Test results reported in the supplement of paper PMC6078165.
The reference is the same well before dosing, and untreated signal decays as well.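 Fibroblast labels denote human fibroblasts, mainly primary ones from uterus (C12385, HUF), lung (H6013), bone (Hs27A), adrenal (HADF) and skin (WS1), plus mammary HMF and breast cancer-associated Hs343T. Cancer cells are basal-like or mesenchymal-like triple-negative breast cancer lines. A hit is a response shift exceeding 3x replicate standard deviation. The tissue of the other fibroblasts is not given here.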

Test system: MDAMB231
Assay: relative JC-1 red fluorescence (viability) vs pre-drug, coculture with fibroblast (fraction); higher = more viable cancer cells
Procedure: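 JC-1 labelled TNBC cells cocultured 1:1 (1,500 cells each) with CellTrace Violet stained primary or stromal fibroblasts in 384-well plates in FluoroBrite medium, treated with one of 42 anticancer drugs at 0.1, 1, 10 or 100 uM. JC-1 red fluorescence (mitochondrial integrity in cancer cells only) was read by plate reader every 8 h for 72 h. Values are normalised to each well's pre-drug value. The stock of one drug was tenfold lower, so its dose labels may be too high.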

O=NN(CCCl)C(=O)NCCCl [Carmustine]
relative JC-1 red fluorescence
Settings | 8 h | 16 h | 24 h | 32 h | 40 h | 48 h | 56 h | 64 h | 72 h
0.1 µM, coculture fibroblast: C12385 | 0.7682 | 0.7294 | 0.64 | 0.618 | 0.563 | 0.5299 | 0.485 | 0.475 | 0.447
0.1 µM, coculture fibroblast: H6013 | 0.882 | 0.822 | 0.777 | 0.754 | 0.712 | 0.698 | 0.681 | 0.655 | 0.625
0.1 µM, coculture fibroblast: H6019 | 0.7485 | 0.657 | 0.614 | 0.573 | 0.509 | 0.489 | 0.438 | 0.416 | 0.378
0.1 µM, coculture fibroblast: H6076 | 0.882 | 0.803 | 0.728 | 0.702 | 0.642 | 0.603 | 0.573 | 0.554 | 0.542
0.1 µM, coculture fibroblast: H6231 | 0.9 | 0.797 | 0.724 | 0.677 | 0.613 | 0.582 | 0.528 | 0.506 | 0.48
0.1 µM, coculture fibroblast: HADF | 0.909 | 0.886 | 0.837 | 0.799 | 0.772 | 0.731 | 0.722 | 0.697 | 0.657
0.1 µM, coculture fibroblast: HCFa | 0.892 | 0.8473 | 0.7797 | 0.731 | 0.679 | 0.625 | 0.5974 | 0.5613 | 0.514
0.1 µM, coculture fibroblast: HCPF | 0.8832 | 0.7931 | 0.703 | 0.689 | 0.636 | 0.596 | 0.556 | 0.528 | 0.502
0.1 µM, coculture fibroblast: HHSteC | 0.8978 | 0.8673 | 0.817 | 0.767 | 0.716 | 0.687 | 0.643 | 0.624 | 0.579
0.1 µM, coculture fibroblast: HMF | 0.8609 | 0.7652 | 0.702 | 0.67 | 0.614 | 0.5716 | 0.533 | 0.5137 | 0.498
0.1 µM, coculture fibroblast: HPFa | 0.9325 | 0.893 | 0.819 | 0.766 | 0.728 | 0.679 | 0.608 | 0.569 | 0.518
0.1 µM, coculture fibroblast: HUF | 0.831 | 0.736 | 0.7314 | 0.606 | 0.542 | 0.519 | 0.472 | 0.458 | 0.434
0.1 µM, coculture fibroblast: Hs5 | 0.932 | 0.888 | 0.835 | 0.81 | 0.767 | 0.72 | 0.684 | 0.659 | 0.64
0.1 µM, coculture fibroblast: Hs27A | 0.881 | 0.8301 | 0.7686 | 0.724 | 0.67 | 0.596 | 0.593 | 0.565 | 0.513
0.1 µM, coculture fibroblast: Hs343T | 0.883 | 0.77795 | 0.671 | 0.627 | 0.561 | 0.514 | 0.448 | 0.422 | 0.388
0.1 µM, coculture fibroblast: WS1 | 0.753 | 0.698 | 0.574 | 0.56 | 0.5033 | 0.4681 | 0.413 | 0.387 | 0.355
1 µM, coculture fibroblast: C12385 | 0.773 | 0.753 | 0.733 | 0.692 | 0.615 | 0.593 | 0.559 | 0.563 | 0.547
1 µM, coculture fibroblast: H6013 | 0.9 | 0.82 | 0.78 | 0.75 | 0.701 | 0.682 | 0.656 | 0.637 | 0.587
1 µM, coculture fibroblast: H6019 | 0.733 | 0.66 | 0.643 | 0.59 | 0.555 | 0.54 | 0.486 | 0.464 | 0.414
1 µM, coculture fibroblast: H6076 | 0.836 | 0.791 | 0.757 | 0.731 | 0.6991 | 0.669 | 0.654 | 0.638 | 0.632
1 µM, coculture fibroblast: H6231 | 0.8849 | 0.7652 | 0.717 | 0.667 | 0.609 | 0.578 | 0.534 | 0.517 | 0.488
1 µM, coculture fibroblast: HADF | 0.8955 | 0.81809 | 0.77696 | 0.735 | 0.698 | 0.6609 | 0.636 | 0.618 | 0.563
1 µM, coculture fibroblast: HCFa | 0.893 | 0.834 | 0.793 | 0.732 | 0.68414 | 0.6329 | 0.598 | 0.563 | 0.515
1 µM, coculture fibroblast: HCPF | 0.842 | 0.737 | 0.701 | 0.679 | 0.632 | 0.592 | 0.564 | 0.538 | 0.515
1 µM, coculture fibroblast: HHSteC | 0.891 | 0.858 | 0.818 | 0.774 | 0.728 | 0.706 | 0.661 | 0.632 | 0.59
1 µM, coculture fibroblast: HMF | 0.824 | 0.739 | 0.679 | 0.631 | 0.579 | 0.536 | 0.503 | 0.487 | 0.469
1 µM, coculture fibroblast: HPFa | 0.948 | 0.889 | 0.837 | 0.777 | 0.755 | 0.7117 | 0.642 | 0.609 | 0.537
1 µM, coculture fibroblast: HUF | 0.822 | 0.709 | 0.736 | 0.616 | 0.557 | 0.537 | 0.483 | 0.48 | 0.467
1 µM, coculture fibroblast: Hs5 | 0.885 | 0.8014 | 0.738 | 0.684 | 0.634 | 0.576 | 0.543 | 0.517 | 0.484
1 µM, coculture fibroblast: Hs27A | 0.878 | 0.8104 | 0.767 | 0.731 | 0.679 | 0.61 | 0.613 | 0.588 | 0.529
1 µM, coculture fibroblast: Hs343T | 0.824 | 0.697 | 0.651 | 0.626 | 0.5778 | 0.536 | 0.5 | 0.484 | 0.462
1 µM, coculture fibroblast: WS1 | 0.708 | 0.648 | 0.608 | 0.547 | 0.503 | 0.474 | 0.442 | 0.438 | 0.415
